B1: FOXP4, Q8IVH2 1-680 (protein)
chain: MMVESASETIRSAPSGQNGVGSLSGQADGSSGGATGTTASGTGREVTTGADSNGEMSPAELLHFQQQQALQVARQFLLQQASGLSSPGNNDSKQSASAVQVPVSVAMMSPQMLTPQQMQQILSPPQLQALLQQQQALMLQQLQEYYKKQQEQLHLQLLTQQQAGKPQPKEALGNKQLAFQQQLLQMQQLQQQHLLNLQRQGLVSLQPNQASGPLQTLPQAAVCPTDLPQLWKGEGAPGQPAEDSVKQEGLDLTGTAATATSFAAPPKVSPPLSHHTLPNGQPTVLTSRRDSSSHEETPGSHPLYGHGECKWPGCETLCEDLGQFIKHLNTEHALDDRSTAQCRVQMQVVQQLEIQLAKESERLQAMMAHLHMRPSEPKPFSQPLNPVPGSSSFSKVTVSAADSFPDGLVHPPTSAAAPVTPLRPPGLGSASLHGGGPARRRSSDKFCSPISSELAQNHEFYKNADVRPPFTYASLIRQAILETPDRQLTLNEIYNWFTRMFAYFRRNTATWKNAVRHNLSLHKCFVRVENVKGAVWTVDEREYQKRRPPKMTGSPTLVKNMISGLSYGALNASYQAALAESSFPLLNSPGMLNPGSASSLLPLSHDDVGAPVEPLPSNGSSSPPRLSPPQYSHQVQVKEEPAEAEEDRQPGPPLGAPNPSASGPPEDRDLEEELPGEELS
B2: FOXP1, Q9H334 1-677 (protein)
chain: MMQESGTETKSNGSAIQNGSGGSNHLLECGGLREGRSNGETPAVDIGAADLAHAQQQQQQALQVARQLLLQQQQQQQVSGLKSPKRNDKQPALQVPVSVAMMTPQVITPQQMQQILQQQVLSPQQLQVLLQQQQALMLQQQQLQEFYKKQQEQLQLQLLQQQHAGKQPKEQQQVATQQLAFQQQLLQMQQLQQQHLLSLQRQGLLTIQPGQPALPLQPLAQGMIPTELQQLWKEVTSAHTAEETTGNNHSSLDLTTTCVSSSAPSKTSLIMNPHASTNGQLSVHTPKRESLSHEEHPHSHPLYGHGVCKWPGCEAVCEDFQSFLKHLNSEHALDDRSTAQCRVQMQVVQQLELQLAKDKERLQAMMTHLHVKSTEPKAAPQPLNLVSSVTLSKSASEASPQSLPHTPTTPTAPLTPVTQGPSVITTTSMHTVGPIRRRYSDKYNVPISSADIAQNQEFYKNAEVRPPFTYASLIRQAILESPEKQLTLNEIYNWFTRMFAYFRRNAATWKNAVRHNLSLHKCFVRVENVKGAVWTVDEVEFQKRRPQKISGNPSLIKNMQSSHAYCTPLNAALQASMAENSIPLYTTASMGNPTLGNLASAIREELNGAMEHTNSNESDSSPGRSPMQAVHPVHVKEEPLDPEEAEGPLSLVTTANHSPDFDHDRDYEDEPVNEDME
B3: FOXP2, O15409 1-715 (protein)
chain: MMQESATETISNSSMNQNGMSTLSSQLDAGSRDGRSSGDTSSEVSTVELLHLQQQQALQAARQLLLQQQTSGLKSPKSSDKQRPLQVPVSVAMMTPQVITPQQMQQILQQQVLSPQQLQALLQQQQAVMLQQQQLQEFYKKQQEQLHLQLLQQQQQQQQQQQQQQQQQQQQQQQQQQQQQQQQQQQQQQQQHPGKQAKEQQQQQQQQQQLAAQQLVFQQQLLQMQQLQQQQHLLSLQRQGLISIPPGQAALPVQSLPQAGLSPAEIQQLWKEVTGVHSMEDNGIKHGGLDLTTNNSSSTTSSNTSKASPPITHHSIVNGQSSVLSARRDSSSHEETGASHTLYGHGVCKWPGCESICEDFGQFLKHLNNEHALDDRSTAQCRVQMQVVQQLEIQLSKERERLQAMMTHLHMRPSEPKPSPKPLNLVSSVTMSKNMLETSPQSLPQTPTTPTAPVTPITQGPSVITPASVPNVGAIRRRHSDKYNIPMSSEIAPNYEFYKNADVRPPFTYATLIRQAIMESSDRQLTLNEIYSWFTRTFAYFRRNAATWKNAVRHNLSLHKCFVRVENVKGAVWTVDEVEYQKRRSQKITGSPTLVKNIPTSLGYGAALNASLQAALAESSLPLLSNPGLINNASSGLLQAVHEDLNGSLDHIDSNGNSSPGCSPQPHIHSIHVKEEPVIAEDEDCPMSLVTTANHSPELEDDREIEEEPLSEDLE

These are yes or no findings as the source states them, for the method shown. Binding seen in cells or lysates may run through a third protein. These calls come from enrichment with a bait or labelling near it, and not all partners need be listed. A no says only that the protein was not detected with the bait. Sequences can lack the tags named with a protein.

The target in this assay is T1, 2×FLAG/V5-TBR1 (human), Q16650.
T1 chain: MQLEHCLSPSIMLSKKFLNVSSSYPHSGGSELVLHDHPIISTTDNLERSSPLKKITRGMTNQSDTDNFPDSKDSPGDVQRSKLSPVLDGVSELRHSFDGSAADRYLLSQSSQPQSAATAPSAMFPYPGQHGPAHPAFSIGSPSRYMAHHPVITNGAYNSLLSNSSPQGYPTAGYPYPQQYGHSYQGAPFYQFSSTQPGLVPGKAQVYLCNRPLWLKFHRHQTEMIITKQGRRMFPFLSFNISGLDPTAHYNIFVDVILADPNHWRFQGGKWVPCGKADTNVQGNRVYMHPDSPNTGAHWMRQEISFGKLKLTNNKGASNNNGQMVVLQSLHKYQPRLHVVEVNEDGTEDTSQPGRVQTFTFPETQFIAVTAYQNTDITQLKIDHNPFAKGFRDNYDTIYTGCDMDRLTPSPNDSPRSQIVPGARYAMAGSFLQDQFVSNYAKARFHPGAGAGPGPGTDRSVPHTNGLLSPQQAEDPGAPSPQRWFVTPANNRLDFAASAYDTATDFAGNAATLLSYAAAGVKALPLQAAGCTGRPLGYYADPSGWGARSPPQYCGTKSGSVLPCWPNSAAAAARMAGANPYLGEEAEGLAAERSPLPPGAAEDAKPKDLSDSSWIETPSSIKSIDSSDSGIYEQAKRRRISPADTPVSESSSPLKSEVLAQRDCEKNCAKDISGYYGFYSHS
The experiment in a line: affinity purification with mass spectrometry; nuclear extract of HEK293 cells stably expressing 2xFLAG/V5-TBR1 on anti-FLAG M2 agarose beads, 3 h at 4°C, buffer C-100 (20 mM HEPES pH 7.6, 20% glycerol, 100 mM KCl, 1.5 mM MgCl2, 0.2 mM EDTA) with benzonase and ethidium bromide; eluted with FLAG-tripeptide; two independent purifications (AP1, AP2); untransfected cells as control. Particulars: remark: other sources report otherwise.
For B1, the binding result is on record as “no binding”.

In the case of B2, the binding result is listed as “no binding”.

For the molecule B3, the binding result is “no binding”.

For the origin of these results see publication PMC10117376.
